Test results from paper PMC7380323 (ACS chemical neuroscience, 2020).
pEC50: −log10 of the molar value.

Key:
Assay type in all cases: cell-based
[1] = test system: HMC3 human microglia cells; test: cells; details: HMC3, read-out: EC50 of GABA induced current
[2] = test system: immortalized human microglia cells; test: Automated patch clamp, GABA current response in immortalized human microglia; details: read-out: EC50 of GABA induced current
[3] = test system: immortalized mouse microglia cells; test: Automated patch clamp, GABA current response in immortalized mouse microglia; details: read-out: EC50 of GABA induced current

NCCCC(=O)O [GABA, γ-aminobutyric acid]
pEC50 [1]: 6.57 | pEC50 [2]: 5.71 | pEC50 [3]: 6.59
